# Measurements from article PMC5216374.
# T1: full length TRIM14 ORF tagged at the C-terminus with 3xFLAG (human) (UniProt Q14142)
# T1 sequence: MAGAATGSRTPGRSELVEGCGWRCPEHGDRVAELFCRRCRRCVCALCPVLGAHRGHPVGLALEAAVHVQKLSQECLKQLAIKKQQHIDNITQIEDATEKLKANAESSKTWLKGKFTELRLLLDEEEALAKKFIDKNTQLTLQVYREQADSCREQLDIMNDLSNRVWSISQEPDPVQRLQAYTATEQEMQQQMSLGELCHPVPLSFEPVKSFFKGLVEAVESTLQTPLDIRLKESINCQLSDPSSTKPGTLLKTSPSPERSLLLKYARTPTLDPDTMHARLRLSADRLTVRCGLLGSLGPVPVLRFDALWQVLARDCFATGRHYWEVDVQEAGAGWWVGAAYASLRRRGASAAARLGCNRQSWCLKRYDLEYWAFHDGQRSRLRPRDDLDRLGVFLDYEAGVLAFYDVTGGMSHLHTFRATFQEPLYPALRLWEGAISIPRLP
# Biological target: T1, full length TRIM14 ORF tagged at the C-terminus with 3xFLAG (human)
# Test: affinity purification with mass spectrometry; anti-FLAG affinity gel IP of C-terminally 3xFLAG-tagged TRIM14 from HEK293T lysate 48 h after transfection, overnight at 4 °C; eluted with 0.15% TFA, trypsin, LC-MS/MS; proteins also found with empty FLAG vector excluded; hits seen in at least 2 of 3 biological experiments
row,Binder,binding
1,"Isoform 2 of Melanoma-associated antigen D1 (protein, UniProt Q9Y5V3-2 1-834) MAQKMDCGAGLLGFQNPDACRAVCHPLPQPPASTLPLSAFPTLCDPPYSQLRDPPAVLSCYCTPLGASPAPAEASVEDSALLMQTLMEAIQISEAPPTNQATAAASPQSSQPPTANEMADIQVSAAAARPKSAFKVQNATTKGPNGVYDFSQAHNAKDVPNTQPKAAFKSQNATPKGPNAAYDFSQAATTGELAANKSEMAFKAQNATTKVGPNATYNFSQSLNANDLANSRPKTPFKAWNDTTKAPTADTQTQNVNQAKMATSQADIETDPGISEPDGATAQTSADGSQAQNLESRTIIRGKRTRKINNLNVEENSSGDQRRAPLAAGTWRSAPVPVTTQNPPGAPPNVLWQTPLAWQNPSGWQNQTARQTPPARQSPPARQTPPAWQNPVAWQNPVIWPNPVIWQNPVIWPNPIVWPGPVVWPNPLAWQNPPGWQTPPGWQTPPGWQGPPDWQGPPDWPLPPDWPLPPDWPLPTDWPLPPDWIPADWPIPPDWQNLRPSPNLRPSPNSRASQNPGAAQPRDVALLQERANKLVKYLMLKDYTKVPIKRSEMLRDIIREYTDVYPEIIERACFVLEKKFGIQLKEIDKEEHLYILISTPESLAGILGTTKDTPKLGLLLVILGVIFMNGNRASEAVLWEALRKMGLRPGVRHPLLGDLRKLLTYEFVKQKYLDYRRVPNSNPPEYEFLWGLRSYHETSKMKVLRFIAEVQKRDPRDWTAQFMEAADEALDALDAAAAEAEARAEARTRMGIGDEAVSGPWSWDDIEFELLTWDEEGDFGDPWSRIPFTFWARYHQNARSRFPQTFAGPIIGPGGTASANFAANFGAIGFFWVE",binds
2,"RNA polymerase II-associated protein 1 (protein, UniProt Q9BWH6 1-1393) MLSRPKPGESEVDLLHFQSQFLAAGAAPAVQLVKKGNRGGGDANSDRPPLQDHRDVVMLDNLPDLPPALVPSPPKRARPSPGHCLPEDEDPEERLRRHDQHITAVLTKIIERDTSSVAVNLPVPSGVAFPAVFLRSRDTQGKSATSGKRSIFAQEIAARRIAEAKGPSVGEVVPNVGPPEGAVTCETPTPRNQGCQLPGSSHSFQGPNLVTGKGLRDQEAEQEAQTIHEENIARLQAMAPEEILQEQQRLLAQLDPSLVAFLRSHSHTQEQTGETASEEQRPGGPSANVTKEEPLMSAFASEPRKRDKLEPEAPALALPVTPQKEWLHMDTVELEKLHWTQDLPPVRRQQTQERMQARFSLQGELLAPDVDLPTHLGLHHHGEEAERAGYSLQELFHLTRSQVSQQRALALHVLAQVISRAQAGEFGDRLAGSVLSLLLDAGFLFLLRFSLDDRVDGVIATAIRALRALLVAPGDEELLDSTFSWYHGALTFPLMPSQEDKEDEDEDEECPAGKAKRKSPEEESRPPPDLARHDVIKGLLATSLLPRLRYVLEVTYPGPAVVLDILAVLIRLARHSLESATRVLECPRLIETIVREFLPTSWSPVGAGPTPSLYKVPCATAMKLLRVLASAGRNIAARLLSSFDLRSRLCRIIAEAPQELALPPEEAEMLSTEALRLWAVAASYGQGGYLYRELYPVLMRALQVVPRELSTHPPQPLSMQRIASLLTLLTQLTLAAGSTPAETISDSAEASLSATPSLVTWTQVSGLQPLVEPCLRQTLKLLSRPEMWRAVGPVPVACLLFLGAYYQAWSQQPSSCPEDWLQDMQRLSEELLLPLLSQPTLGSLWDSLRHCSLLCNPLSCVPALEAPPSLVSLGCSGGCPRLSLAGSASPFPFLTALLSLLNTLAQIHKGLCGQLAAILAAPGLQNYFLQCVAPGAAPHLTPFSAWALRHEYHLQYLALALAQKAAALQPLPATHAALYHGMALALLSRLLPGSEYLTHELLLSCVFRLEFLPERTSGGPEAADFSDQLSLGSSRVPRCGQGTLLAQACQDLPSIRNCYLTHCSPARASLLASQALHRGELQRVPTLLLPMPTEPLLPTDWPFLPLIRLYHRASDTPSGLSPTDTMGTAMRVLQWVLVLESWRPQALWAVPPAARLARLMCVFLVDSELFRESPVQHLVAALLAQLCQPQVLPNLNLDCRLPGLTSFPDLYANFLDHFEAVSFGDHLFGALVLLPLQRRFSVTLRLALFGEHVGALRALSLPLTQLPVSLECYTVPPEDNLALLQLYFRTLVTGALRPRWCPVLYAVAVAHVNSFIFSQDPQSSDEVKAARRSMLQKTWLLADEGLRQHLLHYKLPNSTLPEGFELYSQLPPLRQHYLQRLTSTVLQNGVSET",binds
3,"DNA polymerase delta subunit 3 (protein, UniProt Q15054 1-466) MADQLYLENIDEFVTDQNKIVTYKWLSYTLGVHVNQAKQMLYDYVERKRKENSGAQLHVTYLVSGSLIQNGHSCHKVAVVREDKLEAVKSKLAVTASIHVYSIQKAMLKDSGPLFNTDYDILKSNLQNCSKFSAIQCAAAVPRAPAESSSSSKKFEQSHLHMSSETQANNELTTNGHGPPASKQVSQQPKGIMGMFASKAAAKTQETNKETKTEAKEVTNASAAGNKAPGKGNMMSNFFGKAAMNKFKVNLDSEQAVKEEKIVEQPTVSVTEPKLATPAGLKKSSKKAEPVKVLQKEKKRGKRVALSDDETKETENMRKKRRRIKLPESDSSEDEVFPDSPGAYEAESPSPPPPPSPPLEPVPKTEPEPPSVKSSSGENKRKRKRVLKSKTYLDGEGCIVTEKVYESESCTDSEEELNMKTSSVHRPPAMTVKKEPREERKGPKKGTAALGKANRQVSITGFFQRK",binds

# No constants are given. Whether binding was seen depends on the method and setting. In cells and extracts the contact can be indirect. A yes stands for co-enrichment or nearness to the bait. Other partners may have been found. Tags and fused reporters may be left off the sequences shown.
